No constants are given. Whether binding was seen depends on the method and setting. In cells and extracts the contact can be indirect. Some results given as binding are weak or reduced against the parent protein; the word gives no strength.
Tests used:
Test in all cases: co-IP; GFP-Trap agarose precipitation of C-terminally GFP-tagged BORCS5 constructs from lysates of transfected cells 24 h after transfection (10 mM Tris-Cl pH 7.5, 150 mM NaCl, 0.5 mM EDTA, 1% Triton X-100, 10% glycerol), 2 h at 4°C, five washes; endogenous SNAPIN and BORCS7 detected by immunoblotting; GFP alone as control
[1] = biological target: BORCS5 R95Q, C-terminally GFP-tagged (human) (UniProt Q969J3)
[2] = biological target: BORCS5 wild type, C-terminally GFP-tagged (BLOC-One-Related Complex subunit 5) (human) (UniProt Q969J3)
[3] = biological target: BORCS5 H99P, C-terminally GFP-tagged (human) (UniProt Q969J3)

Row | binding [1] | binding [2] | binding [3] | Binder
1 | binds | binds |  | BORCS7 (protein, UniProt Q96B45 1-106) MMATGTPESQARFGQSVKGLLTEKVTTCGTDVIALTKQVLKGSRSSELLGQAARNMVLQEDAILHSEDSLRKMAIITTHLQYQQEAIQKNVEQSSDLQDQLNHLLK
2 | binds | binds | binds | SNAPIN (protein, UniProt O95295 1-136) MAGAGSAAVSGAGTPVAGPTGRDLFAEGLLEFLRPAVQQLDSHVHAVRESQVELREQIDNLATELCRINEDQKVALDLDPYVKKLLNARRRVVLVNNILQNAQERLRRLNHSVAKETARRRAMLDSGIYPPGSPGK
